Test results reported in ChEMBL document CHEMBL4316593 (Eur J Med Chem, 2019).
Further values from the same series stand in other lists.

How the values were obtained:
Format in all cases: cell-based
Details in all cases: U-87MG ATCC
[1] = Inhibition of RTK/PI3K/AKT/mTOR signaling in human U87 cells assessed as down regulation of MCM2 gene expression at cytotoxic IC50 measured after 48 hrs relative to control
[2] = Inhibition of RTK/PI3K/AKT/mTOR signaling in human U87 cells assessed as up regulation of snurportin 1 gene expression at cytotoxic IC50 measured after 48 hrs relative to control
[3] = Inhibition of RTK/PI3K/AKT/mTOR signaling in human U87 cells assessed as down regulation of ARC gene expression at cytotoxic IC50 measured after 48 hrs relative to control
[4] = Inhibition of RTK/PI3K/AKT/mTOR signaling in human U87 cells assessed as down regulation of ZNF280C gene expression at cytotoxic IC50 measured after 48 hrs relative to control
[5] = Inhibition of RTK/PI3K/AKT/mTOR signaling in human U87 cells assessed as up regulation of IZUMO4 gene expression at cytotoxic IC50 measured after 48 hrs relative to control
[6] = Inhibition of RTK/PI3K/AKT/mTOR signaling in human U87 cells assessed as down regulation of ZNF333 gene expression at cytotoxic IC50 measured after 48 hrs relative to control
[7] = Inhibition of RTK/PI3K/AKT/mTOR signaling in human U87 cells assessed as down regulation of CHMP2B gene expression at cytotoxic IC50 measured after 48 hrs relative to control
[8] = Inhibition of RTK/PI3K/AKT/mTOR signaling in human U87 cells assessed as down regulation of PSMD1 gene expression at cytotoxic IC50 measured after 48 hrs relative to control
[9] = Inhibition of RTK/PI3K/AKT/mTOR signaling in human U87 cells assessed as down regulation of PPIL4 gene expression at cytotoxic IC50 measured after 48 hrs relative to control
[10] = Inhibition of RTK/PI3K/AKT/mTOR signaling in human U87 cells assessed as up regulation of RAP1GAP2 gene expression at cytotoxic IC50 measured after 48 hrs relative to control
[11] = Inhibition of RTK/PI3K/AKT/mTOR signaling in human U87 cells assessed as up regulation of transcription factor AP-4 gene expression at cytotoxic IC50 measured after 48 hrs relative to control
[12] = Inhibition of RTK/PI3K/AKT/mTOR signaling in human U87 cells assessed as up regulation of lysosomal associated membrane protein 3 gene expression at cytotoxic IC50 measured after 48 hrs relative to control
[13] = Inhibition of RTK/PI3K/AKT/mTOR signaling in human U87 cells assessed as down regulation of PPP1CA gene expression at cytotoxic IC50 measured after 48 hrs relative to control
[14] = Inhibition of RTK/PI3K/AKT/mTOR signaling in human U87 cells assessed as down regulation of ANO10 gene expression at cytotoxic IC50 measured after 48 hrs relative to control
[15] = Inhibition of RTK/PI3K/AKT/mTOR signaling in human U87 cells assessed as up regulation of SLC10A5 gene expression at cytotoxic IC50 measured after 48 hrs relative to control
[16] = Inhibition of RTK/PI3K/AKT/mTOR signaling in human U87 cells assessed as down regulation of COTL1 gene expression at cytotoxic IC50 measured after 48 hrs relative to control
[17] = Inhibition of RTK/PI3K/AKT/mTOR signaling in human U87 cells assessed as up regulation of protein tyrosine phosphatase, receptor type S gene expression at cytotoxic IC50 measured after 48 hrs relative to control
[18] = Inhibition of RTK/PI3K/AKT/mTOR signaling in human U87 cells assessed as up regulation of ATPase H+ transporting V0 subunit a1 gene expression at cytotoxic IC50 measured after 48 hrs relative to control
[19] = Inhibition of RTK/PI3K/AKT/mTOR signaling in human U87 cells assessed as down regulation of MED27 gene expression at cytotoxic IC50 measured after 48 hrs relative to control
[20] = Inhibition of RTK/PI3K/AKT/mTOR signaling in human U87 cells assessed as down regulation of SACS gene expression at cytotoxic IC50 measured after 48 hrs relative to control
[21] = Inhibition of RTK/PI3K/AKT/mTOR signaling in human U87 cells assessed as up regulation of HIST3H2A gene expression at cytotoxic IC50 measured after 48 hrs relative to control
[22] = Inhibition of RTK/PI3K/AKT/mTOR signaling in human U87 cells assessed as down regulation of RTFDC1 gene expression at cytotoxic IC50 measured after 48 hrs relative to control
[23] = Inhibition of RTK/PI3K/AKT/mTOR signaling in human U87 cells assessed as up regulation of golgin A8 family member A gene expression at cytotoxic IC50 measured after 48 hrs relative to control
[24] = Inhibition of RTK/PI3K/AKT/mTOR signaling in human U87 cells assessed as up regulation of adhesion G protein-coupled receptor E5 gene expression at cytotoxic IC50 measured after 48 hrs relative to control
[25] = Inhibition of RTK/PI3K/AKT/mTOR signaling in human U87 cells assessed as down regulation of PRKACA gene expression at cytotoxic IC50 measured after 48 hrs relative to control
[26] = Inhibition of RTK/PI3K/AKT/mTOR signaling in human U87 cells assessed as down regulation of TRAPPC10 gene expression at cytotoxic IC50 measured after 48 hrs relative to control
[27] = Inhibition of RTK/PI3K/AKT/mTOR signaling in human U87 cells assessed as down regulation of UBB gene expression at cytotoxic IC50 measured after 48 hrs relative to control
[28] = Inhibition of RTK/PI3K/AKT/mTOR signaling in human U87 cells assessed as down regulation of ECM1 gene expression at cytotoxic IC50 measured after 48 hrs relative to control
[29] = Inhibition of RTK/PI3K/AKT/mTOR signaling in human U87 cells assessed as down regulation of ZFAND2A gene expression at cytotoxic IC50 measured after 48 hrs relative to control
[30] = Inhibition of RTK/PI3K/AKT/mTOR signaling in human U87 cells assessed as up regulation of GAL3ST4 gene expression at cytotoxic IC50 measured after 48 hrs relative to control
[31] = Inhibition of RTK/PI3K/AKT/mTOR signaling in human U87 cells assessed as down regulation of KDM7A gene expression at cytotoxic IC50 measured after 48 hrs relative to control
[32] = Inhibition of RTK/PI3K/AKT/mTOR signaling in human U87 cells assessed as up regulation of cyclin G1 gene expression at cytotoxic IC50 measured after 48 hrs relative to control

CC(=O)C(=NNc1ccccc1C#N)C(C)=O
log2FC [1]: -1.53
log2FC [2]: 1.18
log2FC [3]: -3.35
log2FC [4]: -1.23
log2FC [5]: 2.58
log2FC [6]: -0.737
log2FC [7]: -0.503
log2FC [8]: -1.04
log2FC [9]: -0.509
log2FC [10]: 0.523
log2FC [11]: 0.978
log2FC [12]: 1.25
log2FC [13]: -0.46
log2FC [14]: -0.881
log2FC [15]: 3.31
log2FC [16]: -0.401
log2FC [17]: 0.658
log2FC [18]: 0.731
log2FC [19]: -0.719
log2FC [20]: -0.746
log2FC [21]: 2.02
log2FC [22]: -0.521
log2FC [23]: 1.39
log2FC [24]: 1.24
log2FC [25]: -0.423
log2FC [26]: -0.675
log2FC [27]: -0.639
log2FC [28]: -1.39
log2FC [29]: -1.76
log2FC [30]: 2.08
log2FC [31]: -0.842
log2FC [32]: 0.915
